The values below come from PMC10381965.

Data set [1] relates to CBF1 + CCAN (CENP-LN, CENP-OPQU+, CENP-HIK-TW, CENP-C) + CENP-A histone octamer (CENP-A, H4, H2A, H2B) + CBF3Core (Cep3, Ctf13, Skp1). As to the kind of experiment: SEC-MALS. The note with it: holo-inner kinetochore with CENP-C; proteins purified in 20 mM Hepes pH 8.0, 300 mM NaCl, 0.5 mM TCEP; recombinant protein. (In general: Size exclusion chromatography separates by hydrodynamic size, large species first.)

In data set [2] the test system is CBF1 + CCANΔC (CENP-LN, CENP-OPQU+ with Nkp1-Nkp2, CENP-HIK-TW + no CENP-C) + CENP-A histone octamer (CENP-A, H4, H2A, H2B) + scFv (CENP-A nucleosome-stabilizing single-chain antibody). Put plainly: cryo-EM (10 Å). The note with it: di-CCAN, both protomers non-topological, CBF3Core absent from the reconstruction though in the IKCEN3 sample; proteins purified in 20 mM Hepes pH 8.0, 300 mM NaCl, 0.5 mM TCEP; recombinant protein.

Data set [3] deals with CBF1 + CCANΔC (CENP-LN, CENP-OPQU+ with Nkp1-Nkp2, CENP-HIK-TW + no CENP-C) + CENP-A histone octamer (CENP-A, H4, H2A, H2B) + CBF3Core (Cep3, Ctf13, Skp1) + scFv (CENP-A nucleosome-stabilizing single-chain antibody). As to the kind of experiment: cryo-EM structure (3.7-3.8 Å multibody; ~5 Å consensus). The note with it: IKC0N3, BS3 cross-linked, 90 bp wrapped, 33 bp 5' and 24 bp 3' unwrapped, proteins purified in 20 mM Hepes pH 8.0, 300 mM NaCl, 0.5 mM TCEP, recombinant protein.

For data set [4], the system named is CBF1 + CCANΔC (CENP-LN, CENP-OPQU+ with Nkp1-Nkp2, CENP-HIK-TW + no CENP-C) + CENP-A histone octamer (CENP-A, H4, H2A, H2B) + scFv (CENP-A nucleosome-stabilizing single-chain antibody). As to the kind of experiment: cryo-EM structure (3.4 Å). The note with it: no CBF3Core, proteins purified in 20 mM Hepes pH 8.0, 300 mM NaCl, 0.5 mM TCEP, recombinant protein.

For at least one entry, the source does not settle the construct or the ends of the probe. For some of these results: At least one verdict rests on a figure or table, not on a statement of the authors.

In the case of “ATAAGTCACATGATGATATTTGATTTTATTATATTTTTAAAAAAAGTAAAAAATAAAAAGTAGTTTATTTTTAAAAAATAAAATTTAAAATATTAGTGTATTTGATTTCCGAAAGTTAAAAAAGAAATAGTAAGAAATATATATTTCATTGAA (double strand) [CEN3 153 bp (native)]”, the binding result in data set [1] and in data set [2] was “binds” each time.
Turning to “ATAAGTCACATGGTGCCGAGGCCGCTCAATTGGTCGTAGACAGCTCTAGCACCGCTTAAACGCACGTACGCGCTGTCCCCCGCGTTTTAATATTAGTGTATTTGATTTCCGAAAGTTAAAAAAGAAATAGTAAGAAATATATATTTCATTGAA (double strand) [C0N3 153 bp (chimeric CEN3/W601)]”, the binding result in data set [3] and in data set [4] was “binds” in each case.
